PubChem BioAssay AID1259308 | NCATS, 2017
The whole screen tested about 59,000 reagents; shown is a part drawn at random. About 1,510 of all reagents (2.6%) count as active. 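Calls use total luciferase alone and ignore viability, so some active siRNAs may act by altering cell number.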 No sequences are given here.

Screen: 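Knock-downs that increase output of a recombinant reporter protein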 (primary screen)
Cells: human HEK293 embryonic kidney cells stably expressing firefly luciferase (HEK-CMV-Luc2-Hygro)
Reagents: single siRNA against human genes, 0.8 pmol siRNA per well
Timing: 72 h
Measurement: 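Reporter luminescence and viable-cell signal on separate replicate plates, given as percent of non-targeting control and median/MAD z-scores, plus per-cell luciferase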
Scale: total luciferase, z-score and total luciferase, % of control: higher = more reporter protein produced; luciferase per cell, z-score: higher = more reporter output per viable cell; viable cells, % of control: higher = more viable cells
Active means: 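Active when the median/MAD z-score for overall luciferase is greater than 3; a gene was taken forward for validation with new siRNAs if at least two of its three siRNAs passed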
Meaning of the calls: active = raised luciferase; inactive = no rise

target gene	PubChem SID	total luciferase, z-score	total luciferase, % of control	luciferase per cell, z-score	viable cells, % of control	Call
LGALS12 (galectin 12)	SID160753192	1.73	116	0.704	108	inactive
LGALS12 (galectin 12)	SID160753194	0.317	88.2	-0.173	103	inactive
LGALS12 (galectin 12)	SID160753195	-0.577	70.4	-0.703	94.7	inactive
AGFG1 (ArfGAP with FG repeats 1)	SID160775303	0.106	84	-0.338	103	inactive
AGFG1 (ArfGAP with FG repeats 1)	SID160775304	-0.548	71	-1.04	104	inactive
AGFG1 (ArfGAP with FG repeats 1)	SID160775305	0.479	91.4	1.12	76.1	inactive
TERF1P2 (TERF1 pseudogene 2)	SID160769840	-0.741	67.2	0.0318	74.4	inactive
TERF1P2 (TERF1 pseudogene 2)	SID160769841	0.00353	82	0.599	78.2	inactive
TERF1P2 (TERF1 pseudogene 2)	SID160769843	-0.269	76.5	-0.5	97.6	inactive
SCRG1 (stimulator of chondrogenesis 1)	SID160730964	0.0257	82.4	-0.551	106	inactive
SCRG1 (stimulator of chondrogenesis 1)	SID160730975	-0.547	71	-0.467	89.7	inactive
SCRG1 (stimulator of chondrogenesis 1)	SID160732341	2.95	141	1.47	107	inactive
RTKN2 (rhotekin 2)	SID160761352	-0.915	63.7	-0.235	75.7	inactive
RTKN2 (rhotekin 2)	SID160761353	-0.722	67.5	-0.896	95.5	inactive
RTKN2 (rhotekin 2)	SID160761354	-0.537	71.2	-0.53	91.5	inactive
GNG12 (G protein subunit gamma 12)	SID160731541	1.33	108	1.48	82	inactive
GNG12 (G protein subunit gamma 12)	SID160744694	0.677	95.4	0.191	101	inactive
GNG12 (G protein subunit gamma 12)	SID160744695	0.919	100	0.0448	111	inactive
TEAD4 (TEA domain transcription factor 4)	SID160717890	0.258	87	0.866	77.4	inactive
TEAD4 (TEA domain transcription factor 4)	SID160717891	-1.6	50.1	-1.6	85.3	inactive
TEAD4 (TEA domain transcription factor 4)	SID160717892	-2.05	41.2	-2.36	85.7	inactive
CENPL (centromere protein L)	SID160727374	0.651	94.8	0.558	91.5	inactive
CENPL (centromere protein L)	SID160754066	0.625	94.3	-0.0137	106	inactive
CENPL (centromere protein L)	SID160754067	-0.267	76.6	-0.503	97.7	inactive
CENPL (centromere protein L)	SID160754068	-0.151	78.9	-0.703	106	inactive
CENPL (centromere protein L)	SID160773580	-1.66	49	-0.614	64.3	inactive
CENPL (centromere protein L)	SID160773582	0.0271	82.4	0.171	88.1	inactive
UAP1 (UDP-N-acetylglucosamine pyrophosphorylase 1)	SID160717241	0.967	101	0.681	94.5	inactive
UAP1 (UDP-N-acetylglucosamine pyrophosphorylase 1)	SID160717242	0.0139	82.2	-0.834	114	inactive
UAP1 (UDP-N-acetylglucosamine pyrophosphorylase 1)	SID160717243	0.144	84.8	-0.256	101	inactive
DCDC2 (doublecortin domain containing 2)	SID160740857	-1.42	53.6	-1.16	81.1	inactive
DCDC2 (doublecortin domain containing 2)	SID160740858	0.126	84.4	0.553	81.5	inactive
DCDC2 (doublecortin domain containing 2)	SID160740859	0.249	86.8	0.252	90.8	inactive
TMEM87A (transmembrane protein 87A)	SID160737347	1.25	107	1.72	75.9	inactive
TMEM87A (transmembrane protein 87A)	SID160737348	0.835	98.5	0.455	97.6	inactive
TMEM87A (transmembrane protein 87A)	SID160737349	-0.352	74.9	-0.385	92.6	inactive
AP2A2 (adaptor related protein complex 2 subunit alpha 2)	SID160715200	-0.0211	81.5	-0.242	97	inactive
AP2A2 (adaptor related protein complex 2 subunit alpha 2)	SID160715211	-0.599	70	-0.685	93.7	inactive
AP2A2 (adaptor related protein complex 2 subunit alpha 2)	SID160715222	2.33	128	1.61	93.9	inactive

In a second layout: 5 of the entries above.
DCDC2 (doublecortin domain containing 2) [SID160740859] | total luciferase, z-score = 0.249; total luciferase, % of control = 86.8; luciferase per cell, z-score = 0.252; viable cells, % of control = 90.8; Call = inactive
TMEM87A (transmembrane protein 87A) [SID160737347] | total luciferase, z-score = 1.25; total luciferase, % of control = 107; luciferase per cell, z-score = 1.72; viable cells, % of control = 75.9; Call = inactive
TMEM87A (transmembrane protein 87A) [SID160737348] | total luciferase, z-score = 0.835; total luciferase, % of control = 98.5; luciferase per cell, z-score = 0.455; viable cells, % of control = 97.6; Call = inactive
TMEM87A (transmembrane protein 87A) [SID160737349] | total luciferase, z-score = -0.352; total luciferase, % of control = 74.9; luciferase per cell, z-score = -0.385; viable cells, % of control = 92.6; Call = inactive
AP2A2 (adaptor related protein complex 2 subunit alpha 2) [SID160715200] | total luciferase, z-score = -0.0211; total luciferase, % of control = 81.5; luciferase per cell, z-score = -0.242; viable cells, % of control = 97; Call = inactive
